Where “and” joins values, the source holds several entries; their conditions need not be identical. Identical values can stand only once. ± gives the standard deviation of the averaged measurements. The full ranking holds about 1,600 compounds; the median of “normalized intracellular growth (luminescence, IQM-normalized) in RAW264.7 macrophages” is about 1, and the lowest 2% start at about 0.43. The list shows a part of the results.
Test system: Salmonella enterica serovar Typhimurium SL1344
Test: normalized intracellular growth (luminescence, IQM-normalized) in RAW264.7 macrophages (fraction of plate interquartile mean); higher = more bacterial growth (less inhibition)
Conditions: 10 µM

SMILES	normalized intracellular growth (time point: T3 (3 h))	normalized intracellular growth (time point: Tfinal (~6 h))
O=C1c2ccccc2C(=O)C1c1ccccc1	0.975 ± 0.039	1.19 ± 0.098
CC[C@H]1OC(=O)[C@H](C)[C@@H](O[C@H]2C[C@@](C)(OC)[C@@H](O)[C@H](C)O2)[C@H](C)[C@@H](O[C@@H]2O[C@H](C)C[C@H](N(C)C)[C@H]2O)[C@](C)(O)C[C@@H](C)C(=O)[C@H](C)[C@@H](O)[C@]1(C)O	0.964 and 0.725	0.913 and 0.963
CC(C(=O)O)c1ccc(CC2CCCC2=O)cc1 (stereo unspecified)	1.05 ± 0.055	1.06 ± 0.064
CC1=C(/C=C/C(C)=C/C=C/C(C)=C/C=C/C=C(C)/C=C/C=C(C)/C=C/C2=C(C)CCCC2(C)C)C(C)(C)CCC1 [beta-CAROTENE]	1.02 ± 0.044	1.12 ± 0.15
CO[C@H]1/C=C/O[C@@]2(C)Oc3c(C)c(O)c4c(O)c(c(/C=N/N5CCN(C)CC5)c(O)c4c3C2=O)NC(=O)/C(C)=C\C=C\[C@H](C)[C@H](O)[C@@H](C)[C@@H](O)[C@@H](C)[C@H](OC(C)=O)[C@@H]1C	1.09 ± 0.079	0.83 ± 0.12
Cc1c(Cl)cccc1Nc1ccccc1C(=O)O	1.1 ± 0.018	1.05 ± 0.2
CCCSc1ccc2[nH]c(NC(=O)OC)nc2c1	0.992 ± 0.03	0.954 ± 0.07
Cc1ccc(N(CC2=NCCN2)c2cccc(O)c2)cc1	0.978 ± 0.012	0.936 ± 0.033
O=C1c2c(O)cc(CO)cc2C(OC2OC(CO)C(O)C(O)C2O)c2cccc(OC3OC(CO)C(O)C(O)C3O)c21 (stereo unspecified) [CASANTHRANOL [cascaroside A shown]]	0.997 ± 0.016	0.857 ± 0.041
CCc1ccc(CCOc2ccc(CC3SC(=O)NC3=O)cc2)nc1 (stereo unspecified)	1.1 ± 0.031	1.08 ± 0.18
O=C(O)c1ccccc1-c1c2cc(I)c(=O)c(I)c-2oc2c(I)c(O)c(I)cc12	1.24 ± 0.017	1.21 ± 0.018
C[C@H](N[C@@H](CCc1ccccc1)C(=O)O)C(=O)N1CCC[C@H]1C(=O)O	1.03 ± 0.024	1.03 ± 0.22
CN(C)[C@@H]1C(O)=C(C(N)=O)C(=O)[C@@]2(O)C(O)=C3C(=O)c4c(O)cccc4[C@@](C)(O)[C@H]3C[C@@H]12	0.598 ± 0.062	0.209 ± 0.048
COCCCC/C(=N\OCCN)c1ccc(C(F)(F)F)cc1	0.991 ± 0.047	0.956 ± 0.25
C[C@]12CCC(=O)C=C1CC[C@@H]1[C@@H]2C(=O)C[C@@]2(C)[C@H]1CC[C@]2(O)C(=O)CO	0.977 ± 0.079	1.08 ± 0.11
COC(=O)[C@H](c1ccccc1Cl)N1CCc2sccc2C1	0.973 ± 0.029	0.927 ± 0.36
CC(=O)[C@@]12O[C@](C)(c3ccccc3)O[C@@H]1C[C@H]1[C@@H]3CCC4=CC(=O)CC[C@]4(C)[C@H]3CC[C@@]12C	1.02 ± 0.042	1.24 ± 0.13
NC(=O)N[C@@H](CCC(=O)O)C(=O)O	0.963 ± 0.023	0.872 ± 0.12
NC(=O)c1ccccc1O	1.04 ± 0.085	0.978 ± 0.036
Nc1nc(F)nc2c1ncn2[C@@H]1O[C@H](COP(=O)(O)O)[C@@H](O)[C@@H]1O	0.982 ± 0.061	1.16 ± 0.13
CCOC(=O)N1CCC(=C2c3ccc(Cl)cc3CCc3cccnc32)CC1	0.958 ± 0.02	1.18 ± 0.025

SMILES	normalized intracellular growth (time point: T3 (3 h))	normalized intracellular growth (time point: Tfinal (~6 h))
Oc1c(Br)cc(Br)c2cccnc12	0.991 ± 0.03	1.07 ± 0.084
CN1CCN(C2=Nc3ccccc3Oc3ccc(Cl)cc32)CC1	1.03 ± 0.028	0.898 ± 0.013
CC(C)CC(N)=O	1.05 ± 0.021	1.11 ± 0.057
COc1c2occc2cc2ccc(=O)oc12	1.15 ± 0.034	1.36 ± 0.076
N=C(NCCCCCCNC(=N)NC(=N)Nc1ccc(Cl)cc1)NC(=N)Nc1ccc(Cl)cc1	0.912 ± 0.078	1.15 ± 0.014
NCc1ccccc1CC(=O)N[C@@H]1C(=O)N2C(C(=O)O)=C(CSc3nnnn3CC(=O)O)CS[C@H]12	0.965 ± 0.061	1.16 ± 0.11
C[N+]1(C)CCC(OC(=O)C(O)(c2ccccc2)C2CCCC2)C1 (stereo unspecified)	1.03 ± 0.078	0.874 ± 0.059
N#Cc1ccc(C(c2ccc(C#N)cc2)n2cncn2)cc1	1.04 ± 0.026	1.17 ± 0.092
Clc1ccc(CCC(Cn2ccnc2)Sc2c(Cl)cccc2Cl)cc1 (stereo unspecified)	1.01 ± 0.027	1.04 ± 0.21
O=C(O)Cc1ccc(-c2ccccc2)cc1	1.03 ± 0.063	1.03 ± 0.083
C[C@@H]1C[C@H]2[C@@H]3C[C@H](F)C4=CC(=O)C=C[C@]4(C)[C@@]3(F)[C@@H](O)C[C@]2(C)[C@@]1(O)C(=O)CO	1.01 ± 0.032	0.896 ± 0.019
O=C(O)c1cn(-c2ccc(F)cc2)c2cc(N3CCNCC3)c(F)cc2c1=O	1.1 ± 0.081	0.00781 ± 0.0016
CC(=O)OCC(=O)[C@@]1(O)[C@@H](C)C[C@H]2[C@@H]3CCC4=CC(=O)C=C[C@]4(C)[C@@]3(F)[C@@H](O)C[C@@]21C	0.969 ± 0.035	1.1 ± 0.07
O=C1c2c(O)cccc2Cc2cccc(O)c21	0.966 ± 0.032	0.963 ± 0.019
CO[C@H]1C[C@H](O[C@H]2[C@H](C)O[C@@H](O[C@@H]3/C(C)=C/C[C@@H]4C[C@@H](C[C@]5(C=C[C@H](C)[C@@H](C6CCCCC6)O5)O4)OC(=O)[C@@H]4C=C(C)[C@@H](O)[C@H]5OC/C(=C\C=C\[C@@H]3C)[C@]54O)C[C@@H]2OC)O[C@@H](C)[C@@H]1O	1.02 ± 0.048	1.08 ± 0.21
CC[N+](C)(CC)CCOC(=O)C(O)(c1ccccc1)C1CCCCC1 (stereo unspecified)	1.03 ± 0.018	1.24 ± 0.038
CN(C)CCCN1c2ccccc2Sc2ccc(C(F)(F)F)cc21	1 ± 0.051	0.863 ± 0.037
Oc1cc(O)c2c(c1)O[C@H](c1ccc(O)c(O)c1)[C@@H](O)C2	0.972 ± 0.0031	0.928 ± 0.12
CC(=O)Oc1ccccc1C(=O)Nc1ncc([N+](=O)[O-])s1	1.14 ± 0.035	0.583 ± 0.019
CC1(C)OC(=O)C(OCC2CC2)=C1c1ccc(S(C)(=O)=O)cc1	1.15 ± 0.017	1.2 ± 0.13
CC(N/C(=N\C#N)Nc1ccncc1)C(C)(C)C (stereo unspecified)	1.03 ± 0.025	0.996 ± 0.11

SMILES	normalized intracellular growth (time point: T3 (3 h))	normalized intracellular growth (time point: Tfinal (~6 h))
CCCCC(O)c1ccccc1 (stereo unspecified)	1.08 ± 0.03	0.991 ± 0.18
CCCCOCCOCCOCc1cc2c(cc1CCC)OCO2	0.982 ± 0.015	1.1 ± 0.014
CCN(CC)CCOC(=O)C1(C2CCCCC2)CCCCC1	0.991 ± 0.038	1.13 ± 0.077
C=CC(N)CCC(=O)O (stereo unspecified)	0.987 ± 0.057	0.981 ± 0.23
CCCCCCCCCCCCCCCC(=O)OC/C=C(C)/C=C/C=C(C)/C=C/C1=C(C)CCCC1(C)C	0.959 ± 0.082	1.19 ± 0.14
NS(=O)(=O)c1cc(C2(O)NC(=O)c3ccccc32)ccc1Cl (stereo unspecified)	0.921 ± 0.076	0.987 ± 0.17
CCN[C@H]1CN(CCCOC)S(=O)(=O)c2sc(S(N)(=O)=O)cc21	1.02 ± 0.012	1.22 ± 0.23
CC(C)c1c(C(=O)Nc2ccccc2)c(-c2ccccc2)c(-c2ccc(F)cc2)n1CC[C@@H](O)C[C@@H](O)CC(=O)O	1.08 ± 0.051	0.942 ± 0.072
CC(=O)OCC(=O)[C@@]1(O)CC[C@H]2[C@@H]3CCC4=CC(=O)CC[C@]4(C)[C@H]3[C@@H](O)C[C@@]21C	0.958 ± 0.025	1.05 ± 0.034
O=C(O)CN1C(=O)c2cccc3cccc(c23)C1=O	0.914 ± 0.099	1.05 ± 0.096
FC(F)(F)C(Cl)Br (stereo unspecified)	1 ± 0.049	1.08 ± 0.18
CCCCN(CCCC)CCCOC(=O)c1ccc(N)cc1	1.05 ± 0.083	0.945 ± 0.23
Cc1ccc(C(=O)c2ccc(CC(=O)O)n2C)cc1	0.913 ± 0.056	0.953 ± 0.12
CC(=O)OCC(=O)[C@@]1(O)CC[C@H]2[C@@H]3CCC4=CC(=O)C=C[C@]4(C)[C@@]3(Cl)[C@@H](Cl)C[C@@]21C	0.961 ± 0.062	1.13 ± 0.022
O=C(O)CCCCCCCC(=O)O	0.962 ± 0.049	0.906 ± 0.051
CC(=O)OCC(=O)[C@@]1(O)CC[C@H]2[C@@H]3CCC4=CC(=O)CC[C@]4(C)[C@@]3(F)[C@@H](O)C[C@@]21C	0.966 ± 0.069	0.922 ± 0.076
C[C@@H](O)CN(CCN(C[C@@H](C)O)C[C@@H](C)O)C[C@@H](C)O	1.03 ± 0.018	1.13 ± 0.047
Cc1cn[nH]c1	1.09 ± 0.061	1.01 ± 0.12
CCCOc1cc(N)ccc1C(=O)OCCN(CC)CC	1.05 ± 0.05	1.08 ± 0.086
OC(Cn1cncn1)(Cn1cncn1)c1ccc(F)cc1F	1.07 ± 0.013	1.09 ± 0.036
NCCc1c[nH]cn1	1.01 ± 0.083	1.03 ± 0.13

SMILES	normalized intracellular growth (time point: T3 (3 h))	normalized intracellular growth (time point: Tfinal (~6 h))
CC[N+](C)(C)c1cccc(O)c1	1.02 ± 0.053	1.16 ± 0.023
Nc1[nH]cnc2ncnc1-2	1.02 ± 0.015	0.956 ± 0.02
O.O.O=C([O-])CN(CCN(CC(=O)[O-])CC(=O)O)CC(=O)O.[Na+].[Na+]	0.978 ± 0.021	1.02 ± 0.013
CC(=O)[C@@]1(O)CC[C@H]2[C@@H]3C=C(Cl)C4=CC(=O)[C@@H]5C[C@@H]5[C@]4(C)[C@H]3CC[C@@]21C	1.06 ± 0.049	0.762 ± 0.26
CN1CCC(=C2c3ccccc3C=Cc3ccccc32)CC1	0.67 ± 0.066	0.829 ± 0.031
N=C(N)NC(=N)NCCc1ccccc1	0.992 ± 0.047	0.888 ± 0.095
CC(C)(CO)[C@@H](O)C(=O)NCCC(=O)NCCSSCCNC(=O)CCNC(=O)[C@H](O)C(C)(C)CO	0.981 ± 0.048	0.976 ± 0.089
C[C@H]1O[C@H](O[C@H]2[C@H](O)[C@@H](O)[C@@H](O[C@H]3[C@H](O)[C@@H](O)C(O)O[C@@H]3CO)O[C@@H]2CO)[C@H](O)[C@@H](O)[C@@H]1N[C@H]1C=C(CO)[C@@H](O)[C@H](O)[C@H]1O (stereo partly specified)	0.999 ± 0.083	1.33 ± 0.071
CN1CCN(CC/C=C2/c3ccccc3Sc3ccc(S(=O)(=O)N(C)C)cc32)CC1	1.14 ± 0.045	1.17 ± 0.041
Cc1nccnc1N1CCCCC1	1.09 ± 0.057	0.933 ± 0.023
NNCCc1ccccc1	0.956 ± 0.042	0.864 ± 0.26
CCCc1cc(C(N)=S)ccn1	1.05 ± 0.039	0.979 ± 0.13
CC(=O)S[C@@H]1CC2=CC(=O)CC[C@]2(C)[C@H]2CC[C@@]3(C)[C@@H](CC[C@@]34CCC(=O)O4)[C@H]12	0.97 ± 0.046	0.99 ± 0.073
CC(Cc1cccc(C(F)(F)F)c1)NCCOC(=O)c1ccccc1 (stereo unspecified)	1.01 ± 0.019	1.09 ± 0.23
O=C1OCCN1/N=C/c1ccc([N+](=O)[O-])o1	0.945 ± 0.017	0.928 ± 0.024
NC(=O)c1ccc([N+](=O)[O-])cc1Cl	1.06 ± 0.052	1.18 ± 0.017
CC(C)[C@H](N)C(=O)OCC(CO)OCn1cnc2c(=O)nc(N)[nH]c21 (stereo partly specified)	1.03 ± 0.044	0.89 ± 0.12
Cc1c(O)c(=O)ccn1C	1.02 ± 0.096	0.877 ± 0.29
CCC(=O)O[C@]1(C(=O)CCl)[C@@H](C)C[C@H]2[C@@H]3CCC4=CC(=O)C=C[C@]4(C)[C@@]3(F)[C@@H](O)C[C@@]21C	0.947 ± 0.04	1.04 ± 0.13
c1ccc([C@H]2CN3CCSC3=N2)cc1	0.971 ± 0.087	1.03 ± 0.2

From the supplement of paper PMC6331611
